PubChem BioAssay AID1259286, Sanger Institute – 2017

Assay: 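Kinases whose loss adds to targeted drug killing of colorectal cancer cells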 (primary screen)
Cells: NCI-H630 human colorectal cancer cells
Reagents: siRNA pool against human genes
Challenge: anchor drugs BYL719 at 1 µM, cetuximab at 5 µg/ml or trametinib at 10 nM, or DMSO vehicle alone; exposure time not given
Measurement: 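Viability relative to non-targeting pool wells, averaged over replicates, with robust z-score for knock-down alone and a synergy score for each anchor drug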
Reading the numbers: viability z-score, knock-down alone: higher = more viable cells, weaker knock-down effect; viability vs control, knock-down alone: higher = more viable cells
Units: viability vs control, knock-down alone in fraction of control
Rule for the call: 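a gene is called essential when its knock-down-alone viability robust z-score is below -3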
Meaning of the calls: active = essential when knocked down alone; inactive = not essential alone
Here is a random part of 794 reagents. 17 of them (2.1%) count as active. 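Calls use knock-down alone only; synergy above 0.15 marked separately; viability seems capped at control level; exposure time not given.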 Entries without a mark were called inactive. Not all columns of the deposit are shown. Not given: the amount of reagent, the time to read-out.

After knock-down of MAPK6 (mitogen-activated protein kinase 6), the screen gave viability z-score, knock-down alone 0.225; viability vs control, knock-down alone 0.991.
Silencing of IGF1R (insulin like growth factor 1 receptor) came out at: viability z-score, knock-down alone 0.464; viability vs control, knock-down alone 1.
After knock-down of STK38L (serine/threonine kinase 38 like) the results were viability z-score, knock-down alone 0.339; viability vs control, knock-down alone 0.995.
After knock-down of ACO1 (aconitase 1) the results were viability z-score, knock-down alone 0.464; viability vs control, knock-down alone 1.
PSKH1 (protein serine kinase H1) scored viability z-score, knock-down alone 0.464; viability vs control, knock-down alone 1.
Against RPS6KB2 (ribosomal protein S6 kinase B2), the values are viability z-score, knock-down alone -0.761; viability vs control, knock-down alone 0.954.
For MAST2 (microtubule associated serine/threonine kinase 2), the values are viability z-score, knock-down alone 0.464; viability vs control, knock-down alone 1.
With knock-down of MAP3K12 (mitogen-activated protein kinase kinase kinase 12) the results were viability z-score, knock-down alone 0.464; viability vs control, knock-down alone 1.
Silencing of MAP2K3 (mitogen-activated protein kinase kinase 3) resulted in: viability z-score, knock-down alone 0.464; viability vs control, knock-down alone 1.

A portion from the list above, as a working copy:
RPS6KB2 (ribosomal protein S6 kinase B2): viability z-score, knock-down alone = -0.761; viability vs control, knock-down alone = 0.954
MAST2 (microtubule associated serine/threonine kinase 2): viability z-score, knock-down alone = 0.464; viability vs control, knock-down alone = 1
MAP3K12 (mitogen-activated protein kinase kinase kinase 12): viability z-score, knock-down alone = 0.464; viability vs control, knock-down alone = 1

More reagents follow.
After knock-down of STYK1 (STY kinase 1), the record shows viability z-score, knock-down alone -4.87 (active); viability vs control, knock-down alone 0.798.
After knock-down of FN1 (fibronectin 1), the screen gave viability z-score, knock-down alone -0.0409; viability vs control, knock-down alone 0.981.
For BRD3 (bromodomain containing 3), the values are viability z-score, knock-down alone 0.464; viability vs control, knock-down alone 1.
SBK1 (SH3 domain binding kinase 1) gave viability z-score, knock-down alone -0.214; viability vs control, knock-down alone 0.974.
NEK6 (NIMA related kinase 6) scored viability z-score, knock-down alone 0.464; viability vs control, knock-down alone 1.
Silencing of ELP1 (elongator acetyltransferase complex subunit 1) gave: viability z-score, knock-down alone 0.464; viability vs control, knock-down alone 1.
Depletion of MAP4K3 (mitogen-activated protein kinase kinase kinase kinase 3) gave: viability z-score, knock-down alone 0.211; viability vs control, knock-down alone 0.99.
Depletion of WNK3 (WNK lysine deficient protein kinase 3) resulted in: viability z-score, knock-down alone 0.0532; viability vs control, knock-down alone 0.984.
Silencing of DGKI (diacylglycerol kinase iota) came out at: viability z-score, knock-down alone 0.119; viability vs control, knock-down alone 0.987.
Silencing of TNIK (TRAF2 and NCK interacting kinase) came out at: viability z-score, knock-down alone 0.464; viability vs control, knock-down alone 1.
